Measured values taken from patent US20130129701, “Methods and Compositions for Sequence Specific RNA Endonucleases” (published 2013).
Positions count from the first letter of the chain named. For some assays here: No signal at the amounts used counts as a negative. For some assays here: Where a protein sequence is shown, tags need not be part of it. For some assays here: The comparison behind a weaker result is the experiment's own reference, which may not be listed here. For some assays here: Results from cells or extracts need not show a direct contact. For some assays here: Construct, isoform or probe ends are uncertain for at least one entry.

Legend:
[1] = target: PUF-D R1(SRxxE) R3(SYxxR) R4(SYxxE) R5(NRxxQ) R6(SYxxR) (Homo sapiens) (UniProt Q14671); assay: one hybrid; conditions: yeast three-hybrid, protein in cells, protein details: Gal4 AD fusion
[2] = target: T1, PUF domain of Pumilio 1 (wild type) (Homo sapiens) (UniProt Q14671); assay: one hybrid; conditions: yeast three-hybrid, protein in cells, protein details: Gal4 AD fusion
T1 sequence (looked up): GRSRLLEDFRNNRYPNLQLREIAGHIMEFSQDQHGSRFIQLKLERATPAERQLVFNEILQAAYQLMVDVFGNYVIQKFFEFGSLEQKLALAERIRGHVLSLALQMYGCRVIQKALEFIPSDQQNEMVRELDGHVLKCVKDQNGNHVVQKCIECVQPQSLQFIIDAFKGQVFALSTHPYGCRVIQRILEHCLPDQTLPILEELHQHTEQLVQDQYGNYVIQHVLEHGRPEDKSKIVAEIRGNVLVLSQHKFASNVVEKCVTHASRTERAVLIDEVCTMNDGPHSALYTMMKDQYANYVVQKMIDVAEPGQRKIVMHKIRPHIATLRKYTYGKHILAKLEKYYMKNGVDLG

[3] = target: PUF-E R1(SYxxR) R2(SYxxE) R3(NRxxQ) R5(SRxxE) R7(SYxxR) R8(SYxxE) (Homo sapiens) (UniProt Q14671); assay: one hybrid; conditions: yeast three-hybrid, protein in cells, protein details: Gal4 AD fusion
[4] = target: T2, ASRE(6-2/7-2) (artificial (Homo sapiens domains)) (UniProt Q14671); assay: enzyme reaction in vitro; conditions: no cleavage, purified recombinant protein
T2 sequence: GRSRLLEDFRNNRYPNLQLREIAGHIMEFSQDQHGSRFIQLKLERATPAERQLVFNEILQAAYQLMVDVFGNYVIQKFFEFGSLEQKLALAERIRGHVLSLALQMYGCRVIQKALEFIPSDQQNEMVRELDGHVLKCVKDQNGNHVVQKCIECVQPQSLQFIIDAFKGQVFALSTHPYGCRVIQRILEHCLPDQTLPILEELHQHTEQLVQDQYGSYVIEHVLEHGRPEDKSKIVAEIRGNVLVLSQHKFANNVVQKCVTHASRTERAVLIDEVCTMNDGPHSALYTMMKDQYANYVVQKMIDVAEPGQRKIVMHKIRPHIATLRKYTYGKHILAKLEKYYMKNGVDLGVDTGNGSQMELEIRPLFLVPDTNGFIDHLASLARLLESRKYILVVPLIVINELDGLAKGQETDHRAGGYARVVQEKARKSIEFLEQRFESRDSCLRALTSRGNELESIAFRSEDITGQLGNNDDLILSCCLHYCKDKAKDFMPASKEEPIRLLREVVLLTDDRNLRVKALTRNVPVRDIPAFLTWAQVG

[5] = target: PUF-Eco (two amino acids inserted in repeat 6 between S and R) N1043S/Q1047R plus EcoRI-site two-residue insertion (Homo sapiens) (UniProt Q14671); assay: one hybrid; conditions: yeast three-hybrid, protein in cells, protein details: Gal4 AD fusion
[6] = target: T3, PUF-R6(SYxxR) N1043S/Q1047R (Homo sapiens) (UniProt Q14671); assay: one hybrid; conditions: yeast three-hybrid, protein in cells, protein details: Gal4 AD fusion
T3 sequence (looked up, limits assumed): T1 sequence (looked up) with N216S, Q220R

[7] = target: T4, PUF-R6(SHxxR) N1043S/Y1044H/Q1047R (Homo sapiens) (UniProt Q14671); assay: one hybrid; conditions: yeast three-hybrid, protein in cells, protein details: Gal4 AD fusion
T4 sequence (looked up, limits assumed): T1 sequence (looked up) with N216S, Y217H, Q220R

[8] = target: T5, PUF-R2(SYxxR) N899S/Q903R (Homo sapiens) (UniProt Q14671); assay: one hybrid; conditions: yeast three-hybrid; protein in cells; protein details: Gal4 AD fusion
T5 sequence (looked up, limits assumed): T1 sequence (looked up) with N72S, Q76R

[9] = target: T6, PUF-R7(SYxxR) N1080Y/E1083R (Homo sapiens) (UniProt Q14671); assay: one hybrid; conditions: yeast three-hybrid; G2 RNA; protein in cells; protein details: Gal4 AD fusion
T6 sequence (looked up, limits assumed): T1 sequence (looked up) with N253Y, E256R

[10] = target: T7, PUF-R7(SNxxR) E1083R (Homo sapiens) (UniProt Q14671); assay: one hybrid; conditions: yeast three-hybrid; G2 RNA; protein in cells; protein details: Gal4 AD fusion
T7 sequence (looked up, limits assumed): T1 sequence (looked up) with E256R

[11] = target: T8, ASRE(6-2/7-2) with tripeptide linker VDT linker VDTGNGS replaced by VDT (artificial (Homo sapiens domains)) (UniProt Q14671); assay: enzyme reaction in vitro; conditions: very low activity with short linker; purified recombinant protein; variant of NRE (wild-type PUF target, U3)
T8 sequence: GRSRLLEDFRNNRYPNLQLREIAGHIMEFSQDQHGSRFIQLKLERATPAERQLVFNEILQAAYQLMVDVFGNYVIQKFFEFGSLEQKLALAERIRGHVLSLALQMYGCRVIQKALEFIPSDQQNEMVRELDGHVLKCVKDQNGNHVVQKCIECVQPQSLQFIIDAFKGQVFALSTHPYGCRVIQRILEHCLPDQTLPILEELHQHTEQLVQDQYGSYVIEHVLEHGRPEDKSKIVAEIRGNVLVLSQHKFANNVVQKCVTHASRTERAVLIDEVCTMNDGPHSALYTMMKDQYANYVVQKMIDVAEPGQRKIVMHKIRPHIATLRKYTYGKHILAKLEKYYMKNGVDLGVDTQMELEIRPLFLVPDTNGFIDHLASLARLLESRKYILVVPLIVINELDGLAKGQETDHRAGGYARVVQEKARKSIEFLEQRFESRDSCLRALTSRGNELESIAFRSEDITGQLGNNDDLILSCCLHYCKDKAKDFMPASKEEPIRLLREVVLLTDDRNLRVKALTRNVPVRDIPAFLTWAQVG

[12] = target: T9, ASRE(6-2/7-2/1-1) (ASRE(671)) (artificial (Homo sapiens domains)) (UniProt Q14671); assay: enzyme reaction in vitro; conditions: more than five-fold lower Vmax than cognate 7u6g1g; purified recombinant protein; variant of NRE (wild-type PUF target, U3)
T9 sequence: T2 sequence with Q40E

[13] = target: T10, ASRE(6-2/7-2) with dodecapeptide linker VDRRMARDGLVH (artificial (Homo sapiens domains)) (UniProt Q14671); assay: enzyme reaction in vitro; conditions: non-specific products at longer incubation; purified recombinant protein; variant of NRE (wild-type PUF target, U3)
T10 sequence: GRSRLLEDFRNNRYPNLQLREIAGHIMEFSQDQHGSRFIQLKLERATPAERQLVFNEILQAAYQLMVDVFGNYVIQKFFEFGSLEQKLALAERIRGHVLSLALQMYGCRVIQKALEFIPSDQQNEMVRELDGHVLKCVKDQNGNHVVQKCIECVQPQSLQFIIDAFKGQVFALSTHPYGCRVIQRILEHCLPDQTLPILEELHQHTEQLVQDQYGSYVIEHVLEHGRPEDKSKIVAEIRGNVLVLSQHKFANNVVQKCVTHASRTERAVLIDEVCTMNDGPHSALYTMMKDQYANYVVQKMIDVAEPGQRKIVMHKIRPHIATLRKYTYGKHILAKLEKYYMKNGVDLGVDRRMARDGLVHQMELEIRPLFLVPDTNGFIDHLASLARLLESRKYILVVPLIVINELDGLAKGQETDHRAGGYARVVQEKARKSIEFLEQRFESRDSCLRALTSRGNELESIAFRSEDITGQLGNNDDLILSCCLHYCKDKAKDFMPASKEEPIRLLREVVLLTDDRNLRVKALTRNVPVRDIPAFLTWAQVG

[14] = stronger than WT PUF with its target
[15] = variant of NRE (wild-type PUF target, U3)

Q: Does CUGCUGCUGCUGCUG [(CUG)5 RNA] bind [1, 14]?
A: Result: binds

Q: Does CUGCUGCUGCUGCUG [(CUG)5 RNA] bind [2]?
A: Result: no binding

Q: Does CUGCUGCUGCUGCUG [(CUG)5 RNA] bind [3, 14]?
A: Result: binds

Q: With GUGAUAAG [87621 (8g7u6g2a1g)] as the sequence, how does the functional effect [4, 15] read?
A: Its functional effect is “not active”.

Q: Does UGCAUAUA [C3 RNA] bind [5, 15]?
A: Result: no binding

Q: Does UGCAUAUA [C3 RNA] bind [2, 15]?
A: Result: no binding

Q: Does UGCAUAUA [C3 RNA] bind ([6]; strongest with C3, variant of NRE (wild-type PUF target, U3))?
A: Result: binds

Q: Does UGCAUAUA [C3 RNA] bind [7, 15]?
A: Result: binds

Q: For “UGUAUAUA [NRE (wild-type PUF target, U3)]”, which functional effect [4] is on record?
A: Its functional effect is “not active”.

Q: Does “UGUAUAUA [NRE (wild-type PUF target, U3)]” bind [5]?
A: Result: no binding

Q: Does “UGUAUAUA [NRE (wild-type PUF target, U3)]” bind [8]?
A: Result: no binding

Q: Does “UGUAUAUA [NRE (wild-type PUF target, U3)]” bind ([1]; control RNA)?
A: Result: no binding

Q: Does “UGUAUAUA [NRE (wild-type PUF target, U3)]” bind [2]?
A: Result: binds

Q: Does “UGUAUAUA [NRE (wild-type PUF target, U3)]” bind [9]?
A: Result: binds more weakly

Q: Does “UGUAUAUA [NRE (wild-type PUF target, U3)]” bind [10]?
A: Result: no binding

Q: Does “UGUAUAUA [NRE (wild-type PUF target, U3)]” bind ([6]; very weak)?
A: Result: binds more weakly

Q: Does “UGUAUAUA [NRE (wild-type PUF target, U3)]” bind ([3]; control RNA)?
A: Result: no binding

Q: Does “UGUAUAUA [NRE (wild-type PUF target, U3)]” bind [7]?
A: Result: binds more weakly

Q: UGUAUGUA [3g] was tested. Which functional effect [4, 15] did it give?
A: Its functional effect is “not active”.

Q: With UGUGUGUG [5g3g1g] as the sequence, how does the functional effect [4, 15] read?
A: Its functional effect is “not active”.

Q: What does the source list for UUGAUAUA [7u6g]?
A: functional effect [11]: less active; functional effect [12]: less active; functional effect [13]: active
